Measurements as given in PubChem BioAssay AID493014 (National Center for Advancing Translational Sciences (NCATS), 2011).
This is one part of the list. Shown are side measurements of this screen, not its main read-out; they come without a call. Compounds called inactive in the main read-out are mostly missing here. Potencies come from curve fits of mixed quality, noted in brackets.

Test: qHTS Assay to Find Inhibitors of Chronic Active B-Cell Receptor Signaling
Settings: ABC-DLBCL IkBa-CBG/CBR reporter, luminescence ratio (green luciferase fused to IkBa over red control in TMD8 lymphoma cells), 4 h
In short: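 TMD8 ABC-DLBCL cells carrying doxycycline-inducible green luciferase fused to IkappaBalpha plus unfused red luciferase were exposed to compounds (up to 46 uM) for 4 hrs at 37C. Activity came from the overlap-corrected green/red luminescence ratio.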

[1] = measured here: CBR red luminescence, cell number
[2] = measured here: IkBa-CBG green luminescence

Row | SMILES | AC50 [1] | AC50 [2]
1 | Cc1cccc(N2CCN(C(=O)CCn3c(=O)[nH]c4ccccc4c3=O)CC2)c1C | 5.62 µM [rising, full curve, poor fit] | –
2 | Cn1c(=O)c2c(nc(CN3CCN(C(=O)c4ccco4)CC3)n2CCCc2ccccc2)n(C)c1=O | 1.84 µM [rising, full curve, poor fit] | –
3 | O=C1OCC2=C1C(c1ccc(F)cc1)c1cc3c(cc1N2)OCCO3 (configuration not stated) | 0.282 µM [rising, full curve, poor fit] | 0.282 µM [falling, full curve, poor fit]
4 | Cc1cc(C)n2nc(C(=O)NCCc3ccccc3)nc2n1 | 14.6 µM [falling, single point] | –
5 | CC(=O)c1c(C)[nH]c(C(=O)COC(=O)Cc2ccccc2F)c1C | 13 µM [rising, partial curve, poor fit] | –
6 | Oc1ccc(/C=N/Nc2nc(N3CCCCCC3)nc(N3CCCCCC3)n2)c(O)c1 | 35.5 µM [falling, single point] | –
7 | NC1=NC[C@@H](Cc2ccc(O)cc2)N1CCc1cccc2ccccc12 | 35.5 µM [falling, single point] | –
8 | CC(C)[n+]1ccn(C2=C([O-])c3ccccc3C(=O)/C2=N\S(=O)(=O)c2ccccc2)c1 | 35.5 µM [falling, single point] | –
9 | CN(Cc1ccccc1)C(=O)c1[nH]cnc1C(=O)Nc1nccs1 | 7.31 µM [falling, partial curve, poor fit] | 11.6 µM [rising, partial curve, poor fit]
10 | CCC(=O)Oc1ccc2c(C)cc(=O)oc2c1C | 2.06 µM [rising, single point] | –
11 | Cc1cccnc1NC1OC(=O)c2ccccc21 (configuration not stated) | 8.2 µM [falling, partial curve, poor fit] | –
12 | CC(=O)c1ccc(NC(=O)c2cc3nc4c(c(C(F)(F)F)n3n2)CCCC4)cc1 | 25.9 µM [rising, single point] | –
13 | Cc1ccc(OCCC(=O)OCC(=O)C(C)(C)C)cc1 | 23.1 µM [rising, partial curve, poor fit] | –
14 | COc1cccc(C2=NOC(C(=O)NCc3ccccc3)C2)c1 (configuration not stated) | 22.4 µM [rising, single point] | 35.5 µM [falling, single point]
15 | COC(=O)c1ccc2c(=O)n(CCCCCC(=O)N3CCN(c4ccc(OC)cc4)CC3)c(=O)[nH]c2c1 | 3.16 µM [falling, full curve, poor fit] | –
16 | COc1cccc(N(C(=O)c2nc3nccc(C)n3n2)c2nc3ccccc3s2)c1 | 0.326 µM [rising, partial curve, poor fit] | –
17 | COc1ccc(/C=C2\SC(=S)N(CCCC(=O)Nc3cc(C)on3)C2=O)cc1OC | 4.47 µM [falling, partial curve] | –
18 | Cc1c(O)ccc(-c2[nH]ncc2-c2nc3ccccc3s2)c1O | 2.59 µM [falling, partial curve, poor fit] | –
19 | Cc1c(CN2CCC(C)CC2)c(=O)n(-c2ccccc2)n1C | 22.4 µM [rising, partial curve, poor fit] | –

10 compounds already listed, arranged by number of heavy atoms, ascending.
Row | SMILES | AC50 [1] | AC50 [2]
11 | Cc1cccnc1NC1OC(=O)c2ccccc21 (configuration not stated) | 8.2 µM [falling, partial curve, poor fit] | –
13 | Cc1ccc(OCCC(=O)OCC(=O)C(C)(C)C)cc1 | 23.1 µM [rising, partial curve, poor fit] | –
19 | Cc1c(CN2CCC(C)CC2)c(=O)n(-c2ccccc2)n1C | 22.4 µM [rising, partial curve, poor fit] | –
14 | COc1cccc(C2=NOC(C(=O)NCc3ccccc3)C2)c1 (configuration not stated) | 22.4 µM [rising, single point] | 35.5 µM [falling, single point]
5 | CC(=O)c1c(C)[nH]c(C(=O)COC(=O)Cc2ccccc2F)c1C | 13 µM [rising, partial curve, poor fit] | –
3 | O=C1OCC2=C1C(c1ccc(F)cc1)c1cc3c(cc1N2)OCCO3 (configuration not stated) | 0.282 µM [rising, full curve, poor fit] | 0.282 µM [falling, full curve, poor fit]
7 | NC1=NC[C@@H](Cc2ccc(O)cc2)N1CCc1cccc2ccccc12 | 35.5 µM [falling, single point] | –
8 | CC(C)[n+]1ccn(C2=C([O-])c3ccccc3C(=O)/C2=N\S(=O)(=O)c2ccccc2)c1 | 35.5 µM [falling, single point] | –
2 | Cn1c(=O)c2c(nc(CN3CCN(C(=O)c4ccco4)CC3)n2CCCc2ccccc2)n(C)c1=O | 1.84 µM [rising, full curve, poor fit] | –
15 | COC(=O)c1ccc2c(=O)n(CCCCCC(=O)N3CCN(c4ccc(OC)cc4)CC3)c(=O)[nH]c2c1 | 3.16 µM [falling, full curve, poor fit] | –

The results go on:

Row | SMILES | AC50 [1] | AC50 [2]
20 | Cc1noc(C)c1COc1ccc(C(=O)OCC(=O)Nc2ccc3ccccc3c2)cc1 | 29.1 µM [falling, single point] | –
21 | Cc1[nH]c2ccccc2c1/C=C(\C#N)S(=O)(=O)c1ccccc1 | 1.84 µM [falling, full curve, poor fit] | –
22 | CCOC(=O)C1CCCCN1C(=O)c1oc2c(Cl)cc(C)cc2c1C (configuration not stated) | 11.2 µM [rising, partial curve] | –
23 | N/C(=N\OC(=O)COc1ccc2ccccc2c1Br)c1ccccn1 | 25.1 µM [falling, single point] | –
24 | Cc1cc(C(=O)N2CCCCCC2)cs1 | 8.2 µM [rising, partial curve, poor fit] | –
25 | COC(=O)c1[nH]c2cc(OC)c(OC)cc2c1NC(=O)Oc1ccccc1 | 11.6 µM [rising, partial curve, poor fit] | –
26 | C/C=C(/C)C(=O)O[C@@H]1c2cc3c(c4c2[C@@]2(CO4)C(=O)C(OC)=C(OC)C=C2C[C@@H](C)[C@H]1C)OCO3 | 2.82 µM [rising, partial curve, poor fit] | –
27 | CCOC(=O)Cc1nnc(NC(=O)C2CCCCC2)s1 | 7.94 µM [rising, partial curve] | –
28 | CCn1ccc(C(=O)Nc2ccsc2C(=O)OC)n1 | 3.98 µM [falling, partial curve, poor fit] | –
29 | O=C1[C@@H]2Cc3ccccc3CN2C(=O)N1c1cccc(F)c1 | 3.66 µM [rising, single point] | –
30 | CCCn1ccc2c(OCC(=O)NCc3ccccc3Cl)cccc2c1=O | 10 µM [falling, partial curve, poor fit] | –
31 | O=C(CSc1nc2ccccc2s1)CSc1nc2ccccc2s1 | 0.184 µM [falling, full curve, poor fit] | –
32 | CN(CC1CCCO1)S(=O)(=O)c1ccc(C(=O)Nc2nc3cc4c(cc3s2)OCO4)cc1 (configuration not stated) | 0.316 µM [falling, full curve, poor fit] | –
33 | CCS(=O)(=O)c1nc(S(=O)(=O)c2ccc(Cl)cc2)c(NCc2ccccn2)s1 | 35.5 µM [falling, single point] | –
34 | Nc1c(Cl)ncnc1N/N=C/c1ccc2ccccc2n1 | 29.1 µM [falling, single point] | –
35 | Cc1nnc2nc(-c3ccccc3)nc(-c3ccccc3)n12 | 35.5 µM [falling, single point] | 3.55 µM [rising, full curve, poor fit]
36 | Cc1ccc2nc(SCC(=O)Nc3ccccc3N3CCOCC3)c(C#N)cc2c1 | 0.517 µM [falling, partial curve, poor fit] | –
37 | CCc1cc(C(=O)Nc2ccc(C)cc2Br)cs1 | 0.731 µM [rising, full curve, poor fit] | –
38 | O=[N+]([O-])c1cc(C(F)(F)F)cc([N+](=O)[O-])c1NCCNC(=S)Nc1ccc(Cl)c(Cl)c1 | 35.5 µM [falling, single point] | –
